Measurements: PubChem BioAssay AID330 (DTP/NCI, 2004)
The list does not hold the whole screen: it is rich in T/C values a quarter to a half above the control, in often repeated tests (any T/C) and in doses without a T/C. Other doses and runs of a compound stand elsewhere. T/C: endpoint of the treated group in % of that of the vehicle group. Some entries give survivors of the animals treated and no T/C: the source holds a T/C of zero for them, seemingly a mark for toxic or unscored doses. Some survivor counts are full or nearly so, which does not show that the dose was tolerated: the source hardly ever lists a survival T/C far under the control, and the zero likely stands for such cases as well. Counts of survivors are from the toxicity check (mostly the fifth day) where no day follows; animals may have died later. Schedule codes are those of the source, read here as Q, the interval in days (D) or hours (H), X, the number of doses. Additions like (4×) say how often a value occurs here. Some doses were run more than once; their values stand side by side, smallest first. Where survival is the endpoint, the PubChem record calls one and a half times the control and up active, and a quarter to a half above the control has no call in these data; cut-offs in other NCI protocols can differ. Some T/C values are followed by the survivors on the day toxicity was checked, most often the fifth; without a count, all were alive then.

Tested on: P388 leukemia ip, CD2F1 mice, survival T/C
Assay: NCI In Vivo Anticancer Drug Screen. Data for tumor model P388 Leukemia (intraperitoneal) in CD2F1 (CDF1) mice
Conditions: T/C endpoint: median survival time, higher T/C = longer survival
[1] = dose: 200.0 mg/kg/injection, schedule: Q01DX009 (ip), vehicle: saline
[2] = dose: 240.0 mg/kg/injection, schedule: Q01DX005 (ip), vehicle: saline with Tween-80
[3] = dose: 60.0 mg/kg/injection, schedule: Q01DX005 (ip), vehicle: saline with Tween-80
[4] = dose: 120.0 mg/kg/injection, schedule: Q01DX005 (ip), vehicle: saline with Tween-80

## NC(Cc1cccs1)C(=O)Nc1nncs1 (centres undefined)
dose: 200.0 mg/kg/injection, schedule: Q04DX002 (ip), vehicle: saline
  T/C: 136 % of control
dose: 600.0 mg/kg/injection, schedule: Q04DX002 (ip), vehicle: suspension in saline
  T/C: 138 % of control

## COc1cc(CCN)ccc1OCc1ccccc1
[1]
  survivor count: 2 of 6

## O=c1n(-c2ccccc2)c(=O)n2n1C1C3C4C3C2C2(F)C4C12 (centres undefined)
dose: 12.0 mg/kg/injection, schedule: Q04DX002 (ip), vehicle: Klucel (hydroxypropylcellulose) (HPC)
  survivor count: 4 of 6
dose: 25.0 mg/kg/injection, schedule: Q04DX002 (ip), vehicle: Klucel (hydroxypropylcellulose) (HPC)
  survivor count: 0 of 6
dose: 50.0 mg/kg/injection, schedule: Q04DX002 (ip), vehicle: Klucel (hydroxypropylcellulose) (HPC)
  survivor count: 0 of 6
dose: 100.0 mg/kg/injection, schedule: Q04DX002 (ip), vehicle: Klucel (hydroxypropylcellulose) (HPC)
  survivor count: 0 of 6
dose: 200.0 mg/kg/injection, schedule: Q04DX002 (ip), vehicle: Klucel (hydroxypropylcellulose) (HPC)
  survivor count: 0 of 6
dose: 400.0 mg/kg/injection, schedule: Q04DX002 (ip), vehicle: Klucel (hydroxypropylcellulose) (HPC)
  survivor count: 0 of 6

## O=[N+]([O-])c1ccc(-c2c[s+]cs2)cc1
dose: 200.0 mg/kg/injection, schedule: Q01DX009 (ip), vehicle: distilled water + Tween-80
  survivor count: 2 of 6

## CCOC(=O)c1cc2c(ccc3ccccc32)[nH]1
[2]
  survivor count: 1 of 6

## FC(F)(F)c1ccc2c(c1)N=C(NNC1=Nc3cc(C(F)(F)F)ccc3SC1)CS2
[3]
  survivor count: 6 of 6 (2×)
[4]
  survivor count: 6 of 6
[2]
  survivor count: 6 of 6

## O=c1oc2ccccc2c(O)c1C(c1ccc(Cl)cc1)c1c(O)c2ccccc2oc1=O
[3]
  survivor count: 3 of 6 and 4 of 6
[4]
  survivor count: 3 of 6
[2]
  survivor count: 0 of 6

## Cc1cccc(/C=N/NC(N)=S)n1
dose: 100.0 mg/kg/injection, schedule: Q04DX002 (ip), vehicle: saline with Tween-80
  survivor count: 3 of 6
dose: 200.0 mg/kg/injection, schedule: Q04DX002 (ip), vehicle: saline with Tween-80
  survivor count: 0 of 6
dose: 400.0 mg/kg/injection, schedule: Q04DX002 (ip), vehicle: saline with Tween-80
  survivor count: 0 of 6

## O=C(NC1CCCCC1)OCc1c(COC(=O)NC2CCCCC2)c(-c2ccc(Cl)c(Cl)c2)n2c1CCC2
dose: 25.0 mg/kg/injection, schedule: Q01DX009 (ip), vehicle: Klucel (hydroxypropylcellulose) (HPC)
  T/C: 142 % of control
dose: 25.0 mg/kg/injection, schedule: Q01DX009 (ip), vehicle: saline with Tween-80
  T/C: 141 % of control
dose: 100.0 mg/kg/injection, schedule: Q01DX009 (ip), vehicle: saline with Tween-80
  T/C: 175, 187, 193, 212 % of control
dose: 400.0 mg/kg/injection, schedule: Q01DX009 (ip), vehicle: saline with Tween-80
  survivor count: 6 of 6

## NC[CH2][Sn]([c]1ccccc1)([CH]1CCCCC1)[CH]1CCCCC1
dose: 15.0 mg/kg/injection, schedule: Q01DX005 (ip), vehicle: saline with Tween-80
  survivor count: 3 of 6
dose: 30.0 mg/kg/injection, schedule: Q01DX005 (ip), vehicle: saline with Tween-80
  survivor count: 0 of 6
[3]
  survivor count: 0 of 6
[4]
  survivor count: 1 of 6
[2]
  survivor count: 0 of 6

## N/C=N/O
[1]
  T/C: 125 [5 of 6 alive] and 138 % of control
dose: 400.0 mg/kg/injection, schedule: Q01DX009 (ip), vehicle: saline
  survivor count: 6 of 6
dose: 600.0 mg/kg/injection, schedule: Q01DX009 (ip), vehicle: saline
  survivor count: 0 of 6 and 3 of 6

## Clc1ncnc2ccccc12
dose: 200.0 mg/kg/injection, schedule: Q01DX005 (ip), vehicle: saline with Tween-80
  survivor count: 5 of 6

## O=[N+]([O-])c1ccc(S(=O)(=O)C/C=C/CCl)c([N+](=O)[O-])c1
dose: 50.0 mg/kg/injection, schedule: Q01DX009 (ip), vehicle: saline with Tween-80
  survivor count: 3 of 6
